The supplement of paper PMC10849652
The list shows a part of the results.

Amino acid sequences for entries named in this document (tags omitted). A change or cut given only in a name is not applied to a line headed by its entry.
UniProt P60903, whole entry, looked up: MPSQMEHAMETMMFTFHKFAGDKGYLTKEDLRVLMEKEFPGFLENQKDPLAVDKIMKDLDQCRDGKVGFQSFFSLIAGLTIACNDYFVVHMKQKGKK
UniProt Q7L099: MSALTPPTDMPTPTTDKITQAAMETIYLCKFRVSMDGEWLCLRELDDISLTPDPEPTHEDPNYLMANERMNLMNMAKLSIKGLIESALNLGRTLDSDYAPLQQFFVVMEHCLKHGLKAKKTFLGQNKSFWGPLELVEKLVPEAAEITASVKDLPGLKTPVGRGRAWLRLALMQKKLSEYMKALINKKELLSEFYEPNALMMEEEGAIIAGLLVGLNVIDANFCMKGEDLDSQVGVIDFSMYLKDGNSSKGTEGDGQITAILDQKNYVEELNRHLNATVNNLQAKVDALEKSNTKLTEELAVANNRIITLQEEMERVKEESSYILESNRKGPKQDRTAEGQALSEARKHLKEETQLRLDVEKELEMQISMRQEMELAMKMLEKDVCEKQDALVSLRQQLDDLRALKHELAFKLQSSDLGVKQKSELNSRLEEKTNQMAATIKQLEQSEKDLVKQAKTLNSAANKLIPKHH
UniProt Q9Y265, whole entry, looked up: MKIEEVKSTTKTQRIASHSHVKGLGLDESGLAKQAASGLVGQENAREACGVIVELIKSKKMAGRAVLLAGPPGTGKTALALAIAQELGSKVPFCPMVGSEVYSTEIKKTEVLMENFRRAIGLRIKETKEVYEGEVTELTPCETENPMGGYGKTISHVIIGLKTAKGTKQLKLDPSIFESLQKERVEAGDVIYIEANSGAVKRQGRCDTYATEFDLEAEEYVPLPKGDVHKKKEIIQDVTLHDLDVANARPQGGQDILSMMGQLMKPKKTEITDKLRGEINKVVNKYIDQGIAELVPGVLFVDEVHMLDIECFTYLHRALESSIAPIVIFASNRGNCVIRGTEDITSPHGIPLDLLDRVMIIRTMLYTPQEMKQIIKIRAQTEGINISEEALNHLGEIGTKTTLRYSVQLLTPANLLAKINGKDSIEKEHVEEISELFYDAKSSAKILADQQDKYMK
UniProt Q86VV8: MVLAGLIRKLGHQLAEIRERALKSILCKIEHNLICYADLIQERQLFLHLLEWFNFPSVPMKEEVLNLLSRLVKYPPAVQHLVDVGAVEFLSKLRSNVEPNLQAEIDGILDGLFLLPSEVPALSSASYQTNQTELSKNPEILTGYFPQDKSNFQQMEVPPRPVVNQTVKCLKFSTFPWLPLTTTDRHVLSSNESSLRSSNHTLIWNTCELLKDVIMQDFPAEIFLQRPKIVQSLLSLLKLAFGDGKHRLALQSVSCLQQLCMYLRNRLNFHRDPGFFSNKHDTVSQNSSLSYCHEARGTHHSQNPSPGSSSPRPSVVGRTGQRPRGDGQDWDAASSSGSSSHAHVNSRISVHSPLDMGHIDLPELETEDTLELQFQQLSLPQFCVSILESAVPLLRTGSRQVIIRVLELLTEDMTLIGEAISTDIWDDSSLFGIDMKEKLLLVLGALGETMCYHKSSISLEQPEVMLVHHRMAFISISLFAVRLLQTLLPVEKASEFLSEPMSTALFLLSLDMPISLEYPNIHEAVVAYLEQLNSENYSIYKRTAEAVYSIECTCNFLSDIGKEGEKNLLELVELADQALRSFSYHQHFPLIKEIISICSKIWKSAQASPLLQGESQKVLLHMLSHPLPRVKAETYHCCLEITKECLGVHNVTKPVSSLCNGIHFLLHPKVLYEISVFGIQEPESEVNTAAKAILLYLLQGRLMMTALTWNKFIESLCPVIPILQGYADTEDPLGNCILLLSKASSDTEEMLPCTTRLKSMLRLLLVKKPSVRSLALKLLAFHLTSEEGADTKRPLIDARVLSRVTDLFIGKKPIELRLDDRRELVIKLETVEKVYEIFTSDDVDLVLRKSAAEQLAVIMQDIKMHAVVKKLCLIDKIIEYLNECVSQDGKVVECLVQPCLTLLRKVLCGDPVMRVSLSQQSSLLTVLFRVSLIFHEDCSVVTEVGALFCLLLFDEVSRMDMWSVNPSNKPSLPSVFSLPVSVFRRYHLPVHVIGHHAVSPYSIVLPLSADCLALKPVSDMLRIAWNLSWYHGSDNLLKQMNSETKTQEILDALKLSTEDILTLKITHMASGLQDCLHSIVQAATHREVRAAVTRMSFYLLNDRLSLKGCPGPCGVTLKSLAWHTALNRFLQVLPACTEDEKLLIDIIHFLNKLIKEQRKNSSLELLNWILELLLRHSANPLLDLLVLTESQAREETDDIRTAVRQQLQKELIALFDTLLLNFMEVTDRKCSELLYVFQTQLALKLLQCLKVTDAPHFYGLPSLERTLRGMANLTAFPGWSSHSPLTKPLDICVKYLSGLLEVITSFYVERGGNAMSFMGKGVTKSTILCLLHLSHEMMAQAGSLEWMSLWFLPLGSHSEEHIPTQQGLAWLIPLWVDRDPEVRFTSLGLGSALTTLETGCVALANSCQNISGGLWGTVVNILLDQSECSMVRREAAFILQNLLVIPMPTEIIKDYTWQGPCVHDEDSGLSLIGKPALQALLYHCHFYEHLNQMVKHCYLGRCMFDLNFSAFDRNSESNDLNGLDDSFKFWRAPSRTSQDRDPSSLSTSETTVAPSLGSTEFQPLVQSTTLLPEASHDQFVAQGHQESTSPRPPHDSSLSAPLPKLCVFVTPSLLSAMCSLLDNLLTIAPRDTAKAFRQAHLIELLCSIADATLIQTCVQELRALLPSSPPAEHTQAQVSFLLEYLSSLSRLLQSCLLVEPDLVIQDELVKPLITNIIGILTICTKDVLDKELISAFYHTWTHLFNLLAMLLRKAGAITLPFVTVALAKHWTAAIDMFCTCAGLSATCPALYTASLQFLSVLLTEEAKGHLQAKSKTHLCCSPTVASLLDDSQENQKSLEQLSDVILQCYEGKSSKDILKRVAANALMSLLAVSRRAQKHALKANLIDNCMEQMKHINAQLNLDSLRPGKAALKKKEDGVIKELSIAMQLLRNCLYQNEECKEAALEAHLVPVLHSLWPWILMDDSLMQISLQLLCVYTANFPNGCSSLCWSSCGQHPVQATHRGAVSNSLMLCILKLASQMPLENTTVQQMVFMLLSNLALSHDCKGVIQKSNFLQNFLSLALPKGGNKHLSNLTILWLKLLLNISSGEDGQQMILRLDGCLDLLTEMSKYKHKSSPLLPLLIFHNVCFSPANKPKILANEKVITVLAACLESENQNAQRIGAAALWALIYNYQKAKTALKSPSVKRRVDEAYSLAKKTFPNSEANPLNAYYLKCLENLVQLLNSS
UniProt O00442: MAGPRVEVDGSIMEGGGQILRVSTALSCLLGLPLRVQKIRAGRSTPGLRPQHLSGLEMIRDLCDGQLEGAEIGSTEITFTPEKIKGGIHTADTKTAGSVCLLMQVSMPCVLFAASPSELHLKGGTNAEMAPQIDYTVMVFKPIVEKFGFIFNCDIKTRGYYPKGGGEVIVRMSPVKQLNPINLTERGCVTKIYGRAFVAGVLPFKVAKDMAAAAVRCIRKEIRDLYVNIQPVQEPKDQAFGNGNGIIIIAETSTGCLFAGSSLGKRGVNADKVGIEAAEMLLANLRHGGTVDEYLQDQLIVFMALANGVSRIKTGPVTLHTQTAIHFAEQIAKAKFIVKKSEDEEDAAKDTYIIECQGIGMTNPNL
UniProt P29034: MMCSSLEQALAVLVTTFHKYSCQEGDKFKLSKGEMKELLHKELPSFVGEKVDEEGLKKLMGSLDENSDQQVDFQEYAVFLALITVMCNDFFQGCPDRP
UniProt Q7L4I2: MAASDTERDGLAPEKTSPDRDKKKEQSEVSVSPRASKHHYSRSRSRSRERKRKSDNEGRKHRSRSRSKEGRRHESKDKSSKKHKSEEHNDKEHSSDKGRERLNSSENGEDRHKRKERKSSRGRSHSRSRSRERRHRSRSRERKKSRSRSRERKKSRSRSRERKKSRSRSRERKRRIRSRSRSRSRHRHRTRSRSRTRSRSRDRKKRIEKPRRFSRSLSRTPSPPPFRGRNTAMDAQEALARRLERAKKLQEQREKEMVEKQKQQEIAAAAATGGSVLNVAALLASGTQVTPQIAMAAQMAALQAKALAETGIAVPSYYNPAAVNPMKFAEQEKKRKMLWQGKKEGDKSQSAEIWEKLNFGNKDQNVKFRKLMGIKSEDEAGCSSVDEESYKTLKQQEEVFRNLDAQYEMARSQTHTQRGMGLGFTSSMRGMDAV
UniProt Q9HA92: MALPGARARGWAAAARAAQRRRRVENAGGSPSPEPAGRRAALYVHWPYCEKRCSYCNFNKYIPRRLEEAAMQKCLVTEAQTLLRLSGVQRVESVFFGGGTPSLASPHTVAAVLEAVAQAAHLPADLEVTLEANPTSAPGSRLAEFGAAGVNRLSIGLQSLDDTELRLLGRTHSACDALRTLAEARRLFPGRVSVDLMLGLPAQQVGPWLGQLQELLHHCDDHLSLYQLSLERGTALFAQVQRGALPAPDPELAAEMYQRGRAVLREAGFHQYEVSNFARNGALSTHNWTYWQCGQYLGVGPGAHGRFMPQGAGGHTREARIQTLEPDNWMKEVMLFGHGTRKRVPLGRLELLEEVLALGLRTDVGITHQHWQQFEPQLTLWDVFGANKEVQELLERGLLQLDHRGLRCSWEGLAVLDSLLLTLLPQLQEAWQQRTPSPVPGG
UniProt O95059: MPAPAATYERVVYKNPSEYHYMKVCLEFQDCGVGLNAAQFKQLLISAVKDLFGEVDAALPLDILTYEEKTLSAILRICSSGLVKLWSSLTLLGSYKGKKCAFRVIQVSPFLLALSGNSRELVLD
UniProt P78345: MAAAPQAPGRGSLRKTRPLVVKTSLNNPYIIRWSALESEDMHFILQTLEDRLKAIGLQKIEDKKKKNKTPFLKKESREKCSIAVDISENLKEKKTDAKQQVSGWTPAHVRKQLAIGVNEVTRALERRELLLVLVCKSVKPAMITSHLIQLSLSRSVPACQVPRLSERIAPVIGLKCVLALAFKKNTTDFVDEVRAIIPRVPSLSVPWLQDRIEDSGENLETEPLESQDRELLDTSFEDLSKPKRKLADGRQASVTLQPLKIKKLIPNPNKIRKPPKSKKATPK
UniProt Q8N5L8: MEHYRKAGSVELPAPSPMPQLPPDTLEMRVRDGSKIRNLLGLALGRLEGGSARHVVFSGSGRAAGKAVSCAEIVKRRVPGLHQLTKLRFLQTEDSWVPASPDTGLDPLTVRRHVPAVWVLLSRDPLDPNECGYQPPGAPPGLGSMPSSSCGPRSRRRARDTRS
UniProt Q96T23: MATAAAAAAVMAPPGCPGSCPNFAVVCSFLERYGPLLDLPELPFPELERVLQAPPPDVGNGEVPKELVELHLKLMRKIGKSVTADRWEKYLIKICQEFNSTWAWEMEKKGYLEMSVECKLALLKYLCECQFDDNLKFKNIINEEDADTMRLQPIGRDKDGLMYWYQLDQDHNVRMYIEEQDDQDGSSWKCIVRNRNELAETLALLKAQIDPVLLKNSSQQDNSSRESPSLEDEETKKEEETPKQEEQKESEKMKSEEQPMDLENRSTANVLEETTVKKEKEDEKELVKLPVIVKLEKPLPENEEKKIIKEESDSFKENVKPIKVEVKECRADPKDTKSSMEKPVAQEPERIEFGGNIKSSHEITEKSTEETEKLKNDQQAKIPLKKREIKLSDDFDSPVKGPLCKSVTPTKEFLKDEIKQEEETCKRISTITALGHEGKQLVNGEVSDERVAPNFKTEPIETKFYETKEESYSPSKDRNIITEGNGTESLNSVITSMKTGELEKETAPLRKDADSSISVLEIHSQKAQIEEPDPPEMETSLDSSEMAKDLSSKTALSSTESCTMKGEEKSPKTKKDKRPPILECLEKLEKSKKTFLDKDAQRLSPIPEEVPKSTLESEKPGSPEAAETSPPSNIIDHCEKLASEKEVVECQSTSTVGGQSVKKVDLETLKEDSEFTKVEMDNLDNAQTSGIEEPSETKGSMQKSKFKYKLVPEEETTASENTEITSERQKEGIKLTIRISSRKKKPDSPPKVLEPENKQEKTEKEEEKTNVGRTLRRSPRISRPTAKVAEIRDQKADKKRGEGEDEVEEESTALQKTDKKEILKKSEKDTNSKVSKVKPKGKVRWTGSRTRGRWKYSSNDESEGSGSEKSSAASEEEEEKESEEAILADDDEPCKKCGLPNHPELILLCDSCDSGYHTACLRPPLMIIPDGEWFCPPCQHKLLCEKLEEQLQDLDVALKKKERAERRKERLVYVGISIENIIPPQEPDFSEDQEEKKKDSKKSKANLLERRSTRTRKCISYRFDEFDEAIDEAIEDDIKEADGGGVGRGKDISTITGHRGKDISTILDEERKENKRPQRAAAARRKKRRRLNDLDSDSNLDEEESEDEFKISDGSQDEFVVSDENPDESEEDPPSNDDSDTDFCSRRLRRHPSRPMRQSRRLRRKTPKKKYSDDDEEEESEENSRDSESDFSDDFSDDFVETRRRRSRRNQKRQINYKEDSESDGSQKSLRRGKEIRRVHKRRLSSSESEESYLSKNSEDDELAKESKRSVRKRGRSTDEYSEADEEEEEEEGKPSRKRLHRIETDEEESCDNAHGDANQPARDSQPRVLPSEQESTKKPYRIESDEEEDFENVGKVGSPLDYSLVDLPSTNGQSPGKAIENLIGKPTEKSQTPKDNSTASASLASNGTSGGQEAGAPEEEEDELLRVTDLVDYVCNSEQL

These targets were tested with CC(C)(O)CC(=O)NCCn1ccc2ncnc(Nc3ccc(Oc4cccc(C(F)(F)F)c4)c(Cl)c3)c21 (assay: log2 fold change, soluble protein after heating vs DMSO (PISA); higher = thermal stabilisation; K562 lysate, 10 uM; active = over 0.2 and 3.5 SD of the protein, either way, in both replicates (recomputed)).
Outline: (§1)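 A 30 min treatment with 10 μM compound was applied to crude K562 extract at 1 mg/mL protein in PBS pH 7.4 with 1 mM MgCl2. Heating for 3 min spanned 48°C-58°C, after which aliquots were pooled, adjusted to 0.5% NP-40 at 4°C and spun at 21,000xg for 90 min. TMTpro 16plex LC-MS/MS of the supernatant, with channel sums equalised, gave values recorded as log-two fold change in thermal stability against solvent controls, from duplicates.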

log2 fold change, inactive:
RPS24 isoform 4 (UniProt P62847) -0.048
RRN3 (UniProt Q9NYV6) -0.079
S100A10 (UniProt P60903) 0.725
RUFY3 isoform 2 (UniProt Q7L099) 0.008
RTL10 (UniProt Q7L3V2) -0.081
RPS6KA1 (UniProt Q15418) -0.077
RUVBL1 (UniProt Q9Y265) 0.003

Each target was assayed with CC(C)C1=C2N=C(C=C(N2N=C1)NCC3=CC=CC=C3)NCCCCCCN in the same assay as above.
Outline: as §1

log2 fold change, inactive:
RPS27L (UniProt Q71UM5) -0.008
RTTN (UniProt Q86VV8) 0.379
S100A11 (UniProt P31949) -0.02
RTCA (UniProt O00442) 0.016
S100A2 (UniProt P29034) 0.027
RSRC2 (UniProt Q7L4I2) -0.046
RYR1 (UniProt P21817) -0.088
RSAD1 (UniProt Q9HA92) 0.038
RPP14 (UniProt O95059) -0.018
RPS26 (UniProt P62854) 0.007
RPP38 (UniProt P78345) -0.022
RPUSD4 (UniProt Q96CM3) 0.055
RWDD2B (UniProt P57060) -0.013
RREB1 isoform 2 (UniProt Q92766) -0.078
RPP25L (UniProt Q8N5L8) -0.079
RSF1 (UniProt Q96T23) -0.048

No new results follow: an excerpt of the list.
log2 fold change, inactive:
RTCA (UniProt O00442) 0.016
S100A2 (UniProt P29034) 0.027
RSRC2 (UniProt Q7L4I2) -0.046
RYR1 (UniProt P21817) -0.088
RSAD1 (UniProt Q9HA92) 0.038
RPP14 (UniProt O95059) -0.018
RPS26 (UniProt P62854) 0.007
